Measurements: patent US20110009319A1

Molecular target: Cripto mCFC mutant (H104G, W107G) (mouse)
Test: activin crosslinking assays with co-expressed type II receptors

B1: activin-A (ligand, UniProt P08476 311-426, looked up)
chain: GLECDGKVNICCKKQFFVSFKDIGWNDWIIAPSGYHANYCEGECPSHIAGTSGSSLSFHSTVINHYRMRGHSPFANLKSCCVPTKLRPMSMLYYDDGQNIIKKDIQNMIVEECGCS
modifications: [125I] label in the crosslinking assays (site not stated)
  binding: binds

These are yes or no findings as the source states them, for the method shown. Binding can be weak; no strength is given.
